These are yes or no findings as the source states them, for the method shown. In cells and extracts the contact can be indirect. These calls come from enrichment with a bait or labelling near it, and not all partners need be listed. For some assays here: Tags and fused reporters may be left off the sequences shown.
Assays:
[1] = target: tagged LIN52A (TAP bait, tag end not told for this result) (Arabidopsis thaliana); assay: affinity purification with mass spectrometry; tandem affinity purification (GS^rhino tag) from Arabidopsis PSB-D cell suspension cultures expressing the tagged bait under the 35S promoter; 30 uM cisplatin added 16 h before harvest; 100 mg total protein extract; on-bead digest, LC-MS/MS; in …
[2] = target: tagged NAC044 (TAP bait, tag end not told for this result) (Arabidopsis thaliana); assay: as above
[3] = target: T1, N-terminally tagged RBR1 (TAP bait) (Arabidopsis thaliana), Q9LKZ3; assay: as above; details: remark: other sources report otherwise
T1 chain: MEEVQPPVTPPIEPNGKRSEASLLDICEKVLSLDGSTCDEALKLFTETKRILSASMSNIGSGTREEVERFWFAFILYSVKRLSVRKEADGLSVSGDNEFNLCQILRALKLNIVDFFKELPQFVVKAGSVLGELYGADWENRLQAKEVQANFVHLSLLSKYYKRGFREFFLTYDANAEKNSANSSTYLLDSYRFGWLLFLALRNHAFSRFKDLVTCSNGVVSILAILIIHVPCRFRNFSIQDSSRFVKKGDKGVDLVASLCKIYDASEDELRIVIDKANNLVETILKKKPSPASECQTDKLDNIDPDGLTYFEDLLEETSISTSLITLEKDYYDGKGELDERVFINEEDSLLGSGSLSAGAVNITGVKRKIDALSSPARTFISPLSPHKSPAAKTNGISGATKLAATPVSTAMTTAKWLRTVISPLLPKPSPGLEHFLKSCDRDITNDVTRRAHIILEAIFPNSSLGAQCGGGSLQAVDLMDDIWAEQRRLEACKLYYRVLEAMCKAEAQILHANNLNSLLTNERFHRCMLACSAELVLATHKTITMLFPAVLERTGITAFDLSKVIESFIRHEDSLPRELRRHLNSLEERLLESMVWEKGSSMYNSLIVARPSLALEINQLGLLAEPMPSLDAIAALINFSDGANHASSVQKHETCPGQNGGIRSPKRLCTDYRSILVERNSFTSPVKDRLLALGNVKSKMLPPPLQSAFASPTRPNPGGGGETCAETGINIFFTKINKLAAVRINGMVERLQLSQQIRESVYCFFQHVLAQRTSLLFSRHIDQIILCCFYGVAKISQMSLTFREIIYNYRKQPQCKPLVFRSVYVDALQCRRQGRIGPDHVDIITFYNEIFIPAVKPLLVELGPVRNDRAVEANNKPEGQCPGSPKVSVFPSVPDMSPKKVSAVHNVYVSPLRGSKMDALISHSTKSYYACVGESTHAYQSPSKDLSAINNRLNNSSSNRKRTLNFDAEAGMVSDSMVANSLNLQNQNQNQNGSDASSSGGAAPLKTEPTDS

[4] = target: T2, RBR1-GFP (Arabidopsis thaliana), Q9LKZ3; assay: affinity purification with mass spectrometry; FP-IP: anti-GFP antibody on magnetic beads, total protein extracts (4 mg/IP) of Arabidopsis seedlings expressing the GFP- or CFP-tagged bait under its own promoter; GFP alone as control; standard conditions, various growth regimes (meta-analysis of 182 IPs), with or without 50 uM cisplatin for 24 h; label-free LC-MS/MS; details: remark: other sources report otherwise
T2 chain: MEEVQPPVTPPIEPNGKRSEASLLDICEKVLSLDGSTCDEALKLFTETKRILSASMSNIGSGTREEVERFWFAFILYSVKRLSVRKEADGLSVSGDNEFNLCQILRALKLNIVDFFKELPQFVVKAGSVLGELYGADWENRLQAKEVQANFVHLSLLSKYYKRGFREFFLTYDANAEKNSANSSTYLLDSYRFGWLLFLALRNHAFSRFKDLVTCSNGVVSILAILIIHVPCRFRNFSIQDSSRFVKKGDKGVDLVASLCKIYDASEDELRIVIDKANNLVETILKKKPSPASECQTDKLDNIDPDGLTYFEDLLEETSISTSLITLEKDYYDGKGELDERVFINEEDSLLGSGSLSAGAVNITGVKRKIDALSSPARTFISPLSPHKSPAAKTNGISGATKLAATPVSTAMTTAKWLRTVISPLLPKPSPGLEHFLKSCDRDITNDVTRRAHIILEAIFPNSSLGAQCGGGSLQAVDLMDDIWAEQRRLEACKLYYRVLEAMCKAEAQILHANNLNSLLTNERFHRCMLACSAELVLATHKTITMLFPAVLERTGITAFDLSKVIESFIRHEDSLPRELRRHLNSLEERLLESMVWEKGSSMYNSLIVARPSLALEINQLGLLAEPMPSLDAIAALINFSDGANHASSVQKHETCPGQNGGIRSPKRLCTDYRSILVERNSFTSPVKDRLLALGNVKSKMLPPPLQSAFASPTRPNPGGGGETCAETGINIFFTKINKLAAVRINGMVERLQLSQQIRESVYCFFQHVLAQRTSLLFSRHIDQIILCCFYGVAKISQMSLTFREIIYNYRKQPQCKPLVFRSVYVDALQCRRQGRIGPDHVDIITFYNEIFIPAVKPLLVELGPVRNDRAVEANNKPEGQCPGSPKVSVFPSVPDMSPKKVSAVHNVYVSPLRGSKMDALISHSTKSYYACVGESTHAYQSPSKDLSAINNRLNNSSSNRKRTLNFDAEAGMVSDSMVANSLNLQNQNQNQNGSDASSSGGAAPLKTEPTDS

[5] = target: N-terminally tagged LIN52A (TAP bait) (Arabidopsis thaliana); assay: affinity purification with mass spectrometry; tandem affinity purification (GS^rhino tag) from Arabidopsis PSB-D cell suspension cultures expressing the tagged bait under the 35S promoter; 30 uM cisplatin added 16 h before harvest; 100 mg total protein extract; on-bead digest, LC-MS/MS; in …

B1: AT2G22360 (DJA6) (protein, UniProt Q9SJZ7 83-442)
chain: ADADYYSVLGVSKNATKAEIKSAYRKLARNYHPDVNKDPGAEEKFKEISNAYEVLSDDEKKSLYDRYGEAGLKGAAGFGNGDFSNPFDLFDSLFEGFGGGMGRGSRSRAVDGQDEYYTLILNFKEAVFGMEKEIEISRLESCGTCEGSGAKPGTKPTKCTTCGGQGQVVSAARTPLGVFQQVMTCSSCNGTGEISTPCGTCSGDGRVRKTKRISLKVPAGVDSGSRLRVRGEGNAGKRGGSPGDLFVVIEVIPDPILKRDDTNILYTCKISYIDAILGTTLKVPTVDGTVDLKVPAGTQPSTTLVMAKKGVPVLNKSNMRGDQLVRVQVEIPKRLSKEEKKLIEELADMSKNKTANSTSR
With B1 the binding [1] was “binds” and the binding [2] was “binds”.

B2: DPB, Q9FNY2 1-385 (protein)
chain: MTTTGSNSNHNHHESNNNNNNPSTRSWGTAVSGQSVSTSGSMGSPSSRSEQTITVVTSTSDTTFQRLNNLDIQGDDAGSQGASGVKKKKRGQRAAGPDKTGRGLRQFSMKVCEKVESKGRTTYNEVADELVAEFALPNNDGTSPDQQQYDEKNIRRRVYDALNVLMAMDIISKDKKEIQWRGLPRTSLSDIEELKNERLSLRNRIEKKTAYSQELEEQYVGLQNLIQRNEHLYSSGNAPSGGVALPFILVQTRPHATVEVEISEDMQLVHFDFNSTPFELHDDNFVLKTMKFCDQPPQQPNGRNNSQLVCHNFTPENPNKGPSTGPTPQLDMYETHLQSQQHQQHSQLQIIPMPETNNVTSSADTAPVKSPSLPGIMNSSMKPEN
In the case of B2, the binding [3] is reported as “binds” and the binding [4] is reported as “binds”.

B3: TCX6/LIN54B (protein, UniProt Q9SL70 1-571)
chain: MGEGEEGDKFPPKTDEVTQESMKSARQLDFTGGSSDVEHSHSNQASSMAAASIPSPIVTVTRPIITSQAPPTVATPIPPPPQSQGIILHVPIRHPRPESPNSMPRPAGETRDGTPQKKKQCNCKHSRCLKLYCECFASGTYCDGCNCVNCFNNVENEPARRQAVESTLERNPNAFRPKIAASPHGGRDNREEVGDVVMLARHNKGCHCKKSGCLKKYCECFQANILCSENCKCLDCKNFEGSEVRQSLFHGEHSHNLAYLQHANAAITGAIGSSGFASAPPPKRRKGQEIFFNQGTKDSSTHRLGQANNGRTTSSQTGSRAGGNASLGPSKVVYKSLLANIIKPMDVKALCSVLVAVAGEAAKTLTEKRLANQKETSVASSVQDQGHVNNKAEKSGLEDSNADGSKGRSLSPETLALMCDERDTMLMVAASPNCSVEPTSQLPNGQDQVYAEQEKVVLTKFRDCLNRIISCGEVKESNCSMSRMDLDTPVQTTVRIDPVVQQAPVANGVSQTAKQPSQLNTTTPNTSSQTANGVSQTAKQPSQLTTTTTTPNTSSQTHLHKTPALSEKKDL
With B3 the binding [5] was “binds”.

Source: article PMC8500230
